We go through four molecules from publication doi:10.1101/2024.06.14.598999 (bioRxiv, 2024).

Sequences of proteins named here, by UniProt entry; tags and fusion partners are left off.
UniProt Q96JI7, whole entry: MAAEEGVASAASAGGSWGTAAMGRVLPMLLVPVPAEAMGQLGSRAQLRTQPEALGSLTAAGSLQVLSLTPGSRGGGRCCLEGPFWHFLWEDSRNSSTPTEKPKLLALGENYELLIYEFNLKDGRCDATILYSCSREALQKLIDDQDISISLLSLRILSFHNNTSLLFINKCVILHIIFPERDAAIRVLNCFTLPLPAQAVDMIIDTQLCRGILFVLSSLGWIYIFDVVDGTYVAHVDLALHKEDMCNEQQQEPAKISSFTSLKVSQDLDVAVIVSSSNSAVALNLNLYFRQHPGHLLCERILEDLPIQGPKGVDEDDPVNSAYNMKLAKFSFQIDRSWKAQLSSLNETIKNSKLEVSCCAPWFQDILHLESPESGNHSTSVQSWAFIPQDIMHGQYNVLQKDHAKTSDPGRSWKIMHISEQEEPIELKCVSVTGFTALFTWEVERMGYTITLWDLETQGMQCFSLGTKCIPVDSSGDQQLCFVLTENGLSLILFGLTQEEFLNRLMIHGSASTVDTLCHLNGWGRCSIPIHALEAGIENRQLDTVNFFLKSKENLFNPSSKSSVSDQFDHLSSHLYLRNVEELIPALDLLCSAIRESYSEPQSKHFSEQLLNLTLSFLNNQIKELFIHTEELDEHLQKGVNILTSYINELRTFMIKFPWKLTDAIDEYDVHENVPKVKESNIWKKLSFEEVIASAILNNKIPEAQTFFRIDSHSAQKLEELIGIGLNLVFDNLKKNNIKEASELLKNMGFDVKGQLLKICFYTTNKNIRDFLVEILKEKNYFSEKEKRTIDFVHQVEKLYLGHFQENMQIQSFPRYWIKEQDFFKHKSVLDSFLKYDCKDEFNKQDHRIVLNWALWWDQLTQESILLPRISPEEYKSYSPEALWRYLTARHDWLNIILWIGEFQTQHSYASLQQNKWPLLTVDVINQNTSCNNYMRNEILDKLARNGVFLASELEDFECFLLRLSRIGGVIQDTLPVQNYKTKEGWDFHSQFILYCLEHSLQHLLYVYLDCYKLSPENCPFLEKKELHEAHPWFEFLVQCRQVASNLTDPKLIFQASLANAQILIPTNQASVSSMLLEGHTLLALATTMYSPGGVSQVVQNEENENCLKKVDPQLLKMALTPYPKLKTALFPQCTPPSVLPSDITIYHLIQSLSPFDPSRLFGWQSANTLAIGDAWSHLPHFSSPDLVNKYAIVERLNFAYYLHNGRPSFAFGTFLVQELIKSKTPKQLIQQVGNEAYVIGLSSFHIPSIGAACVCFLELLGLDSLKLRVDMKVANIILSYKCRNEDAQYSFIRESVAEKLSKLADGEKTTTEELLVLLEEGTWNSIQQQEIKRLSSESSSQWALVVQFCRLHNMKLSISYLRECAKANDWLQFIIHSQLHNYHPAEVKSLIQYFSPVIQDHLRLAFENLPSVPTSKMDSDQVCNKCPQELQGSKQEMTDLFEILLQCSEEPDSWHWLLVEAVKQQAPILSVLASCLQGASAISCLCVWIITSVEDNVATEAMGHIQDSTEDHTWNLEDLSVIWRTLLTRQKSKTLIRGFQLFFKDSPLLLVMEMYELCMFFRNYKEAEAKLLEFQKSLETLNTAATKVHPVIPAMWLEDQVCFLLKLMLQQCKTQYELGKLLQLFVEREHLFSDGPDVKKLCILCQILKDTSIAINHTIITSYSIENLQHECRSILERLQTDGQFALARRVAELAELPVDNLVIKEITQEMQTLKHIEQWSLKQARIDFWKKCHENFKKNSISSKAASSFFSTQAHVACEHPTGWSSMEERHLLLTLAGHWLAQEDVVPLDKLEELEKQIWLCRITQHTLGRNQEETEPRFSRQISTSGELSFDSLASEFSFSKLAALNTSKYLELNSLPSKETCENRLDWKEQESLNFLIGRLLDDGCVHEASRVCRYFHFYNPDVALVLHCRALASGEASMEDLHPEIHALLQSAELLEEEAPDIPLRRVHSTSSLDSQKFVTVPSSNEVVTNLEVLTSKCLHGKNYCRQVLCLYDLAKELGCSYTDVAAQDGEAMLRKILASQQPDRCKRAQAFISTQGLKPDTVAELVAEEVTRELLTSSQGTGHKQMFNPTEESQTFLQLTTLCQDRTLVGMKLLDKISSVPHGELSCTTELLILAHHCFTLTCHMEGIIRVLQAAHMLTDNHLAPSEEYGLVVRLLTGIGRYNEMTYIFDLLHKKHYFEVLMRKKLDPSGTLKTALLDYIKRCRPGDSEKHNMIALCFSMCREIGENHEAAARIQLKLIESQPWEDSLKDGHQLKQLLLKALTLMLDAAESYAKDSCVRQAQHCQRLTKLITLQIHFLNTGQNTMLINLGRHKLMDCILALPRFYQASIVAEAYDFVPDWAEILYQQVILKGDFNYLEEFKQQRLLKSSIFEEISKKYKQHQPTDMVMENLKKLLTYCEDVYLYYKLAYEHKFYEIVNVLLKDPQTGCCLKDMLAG
UniProt Q68DK2, whole entry: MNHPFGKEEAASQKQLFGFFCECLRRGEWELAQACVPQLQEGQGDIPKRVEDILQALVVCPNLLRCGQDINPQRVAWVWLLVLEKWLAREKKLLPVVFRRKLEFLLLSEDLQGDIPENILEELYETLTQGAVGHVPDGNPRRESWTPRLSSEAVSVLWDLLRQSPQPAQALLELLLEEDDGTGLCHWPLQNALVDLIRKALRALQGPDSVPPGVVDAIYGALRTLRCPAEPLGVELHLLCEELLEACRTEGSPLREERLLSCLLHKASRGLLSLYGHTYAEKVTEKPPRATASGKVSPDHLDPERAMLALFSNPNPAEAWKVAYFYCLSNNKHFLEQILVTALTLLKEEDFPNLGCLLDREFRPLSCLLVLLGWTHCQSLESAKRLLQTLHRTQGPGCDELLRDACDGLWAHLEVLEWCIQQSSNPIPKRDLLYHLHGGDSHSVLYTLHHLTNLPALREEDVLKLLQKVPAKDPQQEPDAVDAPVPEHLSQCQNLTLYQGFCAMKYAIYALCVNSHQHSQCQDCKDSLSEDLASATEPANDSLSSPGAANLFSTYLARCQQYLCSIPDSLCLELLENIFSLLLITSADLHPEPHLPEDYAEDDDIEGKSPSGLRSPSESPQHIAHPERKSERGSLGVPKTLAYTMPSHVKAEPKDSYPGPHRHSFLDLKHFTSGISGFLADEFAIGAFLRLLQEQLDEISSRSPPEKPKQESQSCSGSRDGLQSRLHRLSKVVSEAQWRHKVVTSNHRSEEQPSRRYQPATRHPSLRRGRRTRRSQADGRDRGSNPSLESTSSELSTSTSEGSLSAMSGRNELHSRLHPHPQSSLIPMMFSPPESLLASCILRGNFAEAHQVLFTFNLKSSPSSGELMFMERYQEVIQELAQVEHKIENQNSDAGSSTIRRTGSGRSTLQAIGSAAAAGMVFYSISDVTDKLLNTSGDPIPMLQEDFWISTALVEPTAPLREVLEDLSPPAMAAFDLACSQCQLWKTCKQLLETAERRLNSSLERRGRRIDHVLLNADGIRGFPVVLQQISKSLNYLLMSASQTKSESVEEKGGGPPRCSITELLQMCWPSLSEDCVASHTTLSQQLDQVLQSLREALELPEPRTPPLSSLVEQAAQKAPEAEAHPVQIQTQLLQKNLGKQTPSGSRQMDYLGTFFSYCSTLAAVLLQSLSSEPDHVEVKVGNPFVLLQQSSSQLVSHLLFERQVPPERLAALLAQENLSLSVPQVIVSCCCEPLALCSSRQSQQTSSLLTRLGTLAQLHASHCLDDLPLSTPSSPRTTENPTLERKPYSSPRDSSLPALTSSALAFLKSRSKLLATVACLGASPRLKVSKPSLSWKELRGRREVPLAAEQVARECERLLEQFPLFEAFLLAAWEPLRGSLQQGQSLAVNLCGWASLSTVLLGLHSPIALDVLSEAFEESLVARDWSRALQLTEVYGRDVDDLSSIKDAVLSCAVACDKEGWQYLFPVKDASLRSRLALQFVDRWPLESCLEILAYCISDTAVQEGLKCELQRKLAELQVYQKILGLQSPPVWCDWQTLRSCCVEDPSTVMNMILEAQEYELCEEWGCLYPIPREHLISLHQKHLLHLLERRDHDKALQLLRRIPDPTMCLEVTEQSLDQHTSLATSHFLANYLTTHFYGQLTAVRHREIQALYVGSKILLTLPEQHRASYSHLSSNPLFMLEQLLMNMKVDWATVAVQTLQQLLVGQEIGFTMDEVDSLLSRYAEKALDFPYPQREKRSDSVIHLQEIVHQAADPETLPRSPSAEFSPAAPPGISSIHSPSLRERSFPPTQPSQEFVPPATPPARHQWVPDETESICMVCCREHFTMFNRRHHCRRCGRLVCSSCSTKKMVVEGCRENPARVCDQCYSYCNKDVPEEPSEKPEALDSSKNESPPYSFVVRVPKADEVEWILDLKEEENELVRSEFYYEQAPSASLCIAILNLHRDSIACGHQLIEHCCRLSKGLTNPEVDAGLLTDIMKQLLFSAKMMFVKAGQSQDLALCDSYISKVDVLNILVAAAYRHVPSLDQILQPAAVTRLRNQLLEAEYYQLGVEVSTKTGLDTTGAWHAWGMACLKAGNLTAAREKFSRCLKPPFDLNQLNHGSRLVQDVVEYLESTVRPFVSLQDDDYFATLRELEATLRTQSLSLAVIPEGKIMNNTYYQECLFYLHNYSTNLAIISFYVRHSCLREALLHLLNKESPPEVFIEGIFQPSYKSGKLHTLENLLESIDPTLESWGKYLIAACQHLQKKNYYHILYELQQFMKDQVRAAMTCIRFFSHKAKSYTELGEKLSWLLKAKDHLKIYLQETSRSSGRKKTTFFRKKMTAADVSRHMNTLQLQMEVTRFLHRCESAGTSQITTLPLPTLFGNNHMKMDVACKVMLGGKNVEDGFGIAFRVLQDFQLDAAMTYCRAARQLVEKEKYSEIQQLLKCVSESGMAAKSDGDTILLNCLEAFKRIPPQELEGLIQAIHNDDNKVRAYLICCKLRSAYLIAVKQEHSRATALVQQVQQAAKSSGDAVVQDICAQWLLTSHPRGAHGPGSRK

For experiment [1], the target named is human SPG11 (spatacsin), full length, N-terminal Twin-Strep-Flag tag (human) (UniProt Q96JI7). Nature of the experiment: cross-linking.
Experiment [2] deals with SPG11-SPG15 complex in Expi293F lysate (TSF-SPG11 with MBP-SPG15) (human) (UniProt Q96JI7+Q68DK2). Kind of experiment: pull-down.
Experiment [3] deals with human SPG11 (spatacsin), full length, N-terminal Twin-Strep-Flag tag (human) (UniProt Q96JI7). Kind of experiment: cryo-EM structure.
Experiment [4] shares this target. Kind of experiment: cross-linking. The source holds these as a separate data set.
The target is the same in experiment [5]. Kind of experiment: cryo-EM structure. The source holds these as a separate data set.
The target in experiment [6] is T1, mouse AP5ζ (residues 1-807), from AP5ζ-GST after TEV digestion (mouse) (UniProt Q3U829).
T1 sequence: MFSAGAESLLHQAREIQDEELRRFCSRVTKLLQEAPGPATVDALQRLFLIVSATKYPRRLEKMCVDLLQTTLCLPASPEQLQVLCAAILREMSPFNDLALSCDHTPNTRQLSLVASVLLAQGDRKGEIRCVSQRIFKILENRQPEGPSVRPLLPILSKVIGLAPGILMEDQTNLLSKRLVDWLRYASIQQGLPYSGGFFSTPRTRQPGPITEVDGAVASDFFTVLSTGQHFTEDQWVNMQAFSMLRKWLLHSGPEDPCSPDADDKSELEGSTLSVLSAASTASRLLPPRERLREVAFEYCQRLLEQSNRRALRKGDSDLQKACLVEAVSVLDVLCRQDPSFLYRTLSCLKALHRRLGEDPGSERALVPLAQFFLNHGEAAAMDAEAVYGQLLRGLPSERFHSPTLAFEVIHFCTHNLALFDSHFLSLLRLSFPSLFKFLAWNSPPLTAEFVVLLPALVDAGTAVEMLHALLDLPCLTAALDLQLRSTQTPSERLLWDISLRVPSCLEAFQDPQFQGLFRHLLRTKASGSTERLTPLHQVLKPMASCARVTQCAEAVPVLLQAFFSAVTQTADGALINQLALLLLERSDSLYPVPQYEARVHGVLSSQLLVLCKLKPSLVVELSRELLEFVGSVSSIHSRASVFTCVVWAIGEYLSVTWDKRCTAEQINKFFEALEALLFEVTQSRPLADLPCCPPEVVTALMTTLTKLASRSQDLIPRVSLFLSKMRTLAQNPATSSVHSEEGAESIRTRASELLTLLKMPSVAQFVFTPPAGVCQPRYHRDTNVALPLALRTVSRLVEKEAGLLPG
Kind of experiment: cryo-EM structure.

Experiment [7] has as its target T1, mouse AP5ζ (residues 1-807), from AP5ζ-GST after TEV digestion (mouse). Nature of the experiment: cryo-EM structure. The source holds these as a separate data set.
In experiment [8] the target is T2, mouse AP5ζ with N-terminal GST tag and C-terminal Twin-Strep tag (subcomplex purification) (mouse) (UniProt Q3U829).
T2 sequence: T1 sequence
Kind of experiment: SEC.

Read-outs that look alike come from different tables or passages of the source. No constants are given. Whether binding was seen depends on the method and setting. For some assays here: In cells and extracts the contact can be indirect. Some entries that bind do so weakly or less than the wild type. For some assays here: Where a sequence is shown, tags or fusion partners need not be part of it.

On to “human SPG15 (spastizin), full length, from MBP-SPG15 after TEV digestion (from UniProt Q68DK2 1-2539)”, for which the binding entry in experiment [1] was “binds”.

B1: GST-AP5β5 (full length)/µ5 subcomplex in Expi293F lysate (complex, UniProt Q2VPB7 1-878; Q8BJ63 1-490)
chain 1: MGPLSRDAWAQRLGAFRASPSAFMAGPEGEDLGRDLLSDLRSEKLSEQTKVSLLALSMEYPAQLWPDASAAEVAATSLLDTLVLLPPRPSALRRPLLLAATTALAAGGALGPTSGASCRLLPLLLGLAAGSDLGRGFVPASEQRPLQATACECLRELESCKPGLLGGSLGLLRGLLGQEGPVQPLSLLLALALRNTLVLQSRVGAGLGGLLTDKVSPTGGGPWDWTLVEEGDGRLQPQAPSWPAAEEGEGERSLTAREHSPEEARELRAAVIQLLDTSYLLTPVAQAQLLWLLGWALRGLQGQPPALFKPQLVRLLGTAQLTLLHAMLALKAAFGEALFTAQDEALLLRRLTLAAQHPALPPPTHLFYLHCVLSFPENWPLGPEGEEAAPLLLGPQLCRGLLPSLLHDPMALLARLHLLCLLCAEEEEEEKGQLPSPRHYLEELLAGLRQRAALDGGPRALATLCFQASYLVACCLAGQPTVLTPLIHGLAQLYQARPMLAPHFVDLLDQVDSELREPLKVVLRQVVVSRPGRDEALCWHLQMLAKVADGDAQSATLNFLQAAAAHCTNWDLQQGLLRVCRALLRAGVRGGLVDLLQVLARQLEDPDGRDHARLYYILLAHLAAPKLGVALGPSLAAPALASSLVAENQGFVAALMVQEAPALVRLSLGSHRVKGPLPVLKLQPEALEPIYSLELRFRVEGQLYAPLEAVHVPCLCPGRPARPLLLPLQPRCPAPARLDVHALYTTSTGLTCHAHLPPLFVNFADLFLPFPQPPEGAGLGFFEELWDSCLPEGAESRVWCPLGPQGLEGLVSRHLEPFVVVAQPPTSYCVAIHLPPDSKLLLRLEAALADGVPVALRTDDWAVLPLAGDYLRGLAAAV
chain 2: MALRAVWLIRHEPGTPLGGTVRFSRRYPTVEKRAKAFNGMTYVPVPEDGPFLRALLFQLRLLDDDKDFMERRDGCSRINKTSIYGLSVGGEELWPVIAFLRDSMIYASVPLVEQALSPRPPLISISGVSQGLELLLGIQDFLYSSQKNDTDLHTKLSQLPDLLLQACPLGTLLDANLQNSLNSINSVSVTQPQKQPAWKVGAYKGKAQISISITETVKCMQYGKQDIADTWQVAGTVACKCDLEGVMPAVTISLSLPTNGSPLQDIIVHPCVTSLDSAILTSSSIDTMDDSAFSGPYKFPFTPPLESFNLCHYTSQVPVPPILGSYHMKEEGVQLKVTVNFKLHESVRNNFEVCEAHIPFYNRGPITHLEYKASFGQLEVFREKSLLVWIIGQKFPKSMEISLSGTLTFGVKGHNKQPFDHICIGNTAYIKLNFRIADYTLTGCYADQHSVQVFASGKPKISAYRKLISSDYYIWNSKAPAPVTYASLLP
For B1, the binding entry in experiment [2] is on record as “binds weakly”.

B2: mouse AP5ζ (residues 1-807), from AP5ζ-GST after TEV digestion (protein, UniProt Q3U829 1-807)
chain: T1 sequence
Turning to B2, the binding entry in experiment [3], in experiment [4] and in experiment [5] was “binds” throughout.

B3: human AP5σ5 (residues 1-200) (protein, UniProt Q9NUS5 1-200)
chain: MVHAFLIHTLRAPNTEDTGLCRVLYSCVFGAEKSPDDPRPHGAERDRLLRKEQILAVARQVESMCRLQQQASGRPPMDLQPQSSDEQVPLHEAPRGAFRLAAENPFQEPRTVVWLGVLSLGFALVLDAHENLLLAEGTLRLLTRLLLDHLRLLAPSTSLLLRADRIEGILTRFLPHGQLLFLNDQFVQGLEKEFSAAWPR
As for B3, the binding entry in experiment [6], in experiment [7] and in experiment [8] was “binds” each time.
